# Source: paper PMC12691697
# T1: FLAG-tagged GBP5 (guanylate-binding protein 5) (UniProt Q96PP8)
# T1 sequence: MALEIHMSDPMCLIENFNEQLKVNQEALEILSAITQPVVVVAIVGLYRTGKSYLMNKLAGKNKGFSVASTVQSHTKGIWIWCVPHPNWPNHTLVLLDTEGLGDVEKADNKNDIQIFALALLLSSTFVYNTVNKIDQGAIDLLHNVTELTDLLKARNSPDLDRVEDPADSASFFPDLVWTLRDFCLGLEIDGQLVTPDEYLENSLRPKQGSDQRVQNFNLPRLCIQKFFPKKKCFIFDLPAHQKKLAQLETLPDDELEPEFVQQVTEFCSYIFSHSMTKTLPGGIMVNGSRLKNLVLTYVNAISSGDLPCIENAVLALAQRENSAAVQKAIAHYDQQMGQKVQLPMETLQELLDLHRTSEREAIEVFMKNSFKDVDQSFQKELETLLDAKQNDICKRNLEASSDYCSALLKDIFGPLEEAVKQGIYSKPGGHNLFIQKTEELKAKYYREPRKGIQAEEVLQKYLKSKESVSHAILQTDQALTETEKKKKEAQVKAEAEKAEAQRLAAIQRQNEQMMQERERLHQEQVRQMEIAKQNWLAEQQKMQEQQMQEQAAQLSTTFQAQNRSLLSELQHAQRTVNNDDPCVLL
# Assays:
# Assay in all cases: co-IP; HEK 293T cells co-transfected 48 h with FLAG-GBP5 constructs and MYC-tagged OST subunits; lysates immunoprecipitated with anti-FLAG on Dynabeads Protein G overnight at 4°C; washes include Pierce IP Lysis Buffer with 500 mM NaCl; anti-MYC blot
# [1] = target: T1, FLAG-tagged GBP5 (guanylate-binding protein 5)
# [2] = target: FLAG-GBP5 mutant M4 (deletion of the GTPase effector domain (GED))
# [3] = target: FLAG-GBP5 mutant M1 (deletion of the large GTPase (LG) domain)
Molecule,binding [1],binding [2],binding [3]
MYC-tagged RPN2 deleted for its C-terminal cytoplasmic tail (domain or fragment),no binding,,
"MYC-tagged DDOST (protein, UniProt P39656 43-456) SGPRTLVLLDNLNVRETHSLFFRSLKDRGFELTFKTADDPSLSLIKYGEFLYDNLIIFSPSVEDFGGNINVETISAFIDGGGSVLVAASSDIGDPLRELGSECGIEFDEEKTAVIDHHNYDISDLGQHTLIVADTENLLKAPTIVGKSSLNPILFRGVGMVADPDNPLVLDILTGSSTSYSFFPDKPITQYPHAVGKNTLLIAGLQARNNARVIFSGSLDFFSDSFFNSAVQKAAPGSQRYSQTGNYELAVALSRWVFKEEGVLRVGPVSHHRVGETAPPNAYTVTDLVEYSIVIQQLSNGKWVPFDGDDIQLEFVRIDPFVRTFLKKKGGKYSVQFKLPDVYGVFQFKVDYNRLGYTHLYSSTQVSVRPLQHTQYERFIPSAYPYYASAFSMMLGLFIFSIVFLHMKEKEKSD",,binds,binds

# Other lines, results leading:
binding [1],binding [2],binding [3],Molecule
no binding,,,MYC-tagged RPN1 deleted for its C-terminal cytoplasmic tail (domain or fragment)
no binding,,,MYC-tagged DDOST deleted for its C-terminal cytoplasmic tail (domain or fragment)
,binds,binds,"MYC-tagged RPN1 (protein, UniProt P04843 24-607) ASSEAPPLINEDVKRTVDLSSHLAKVTAEVVLAHLGGGSTSRATSFLLALEPELEARLAHLGVQVKGEDEEENNLEVRETKIKGKSGRFFTVKLPVALDPGAKISVIVETVYTHVLHPYPTQITQSEKQFVVFEGNHYFYSPYPTKTQTMRVKLASRNVESYTKLGNPTRSEDLLDYGPFRDVPAYSQDTFKVHYENNSPFLTITSMTRVIEVSHWGNIAVEENVDLKHTGAVLKGPFSRYDYQRQPDSGISSIRSFKTILPAAAQDVYYRDEIGNVSTSHLLILDDSVEMEIRPRFPLFGGWKTHYIVGYNLPSYEYLYNLGDQYALKMRFVDHVFDEQVIDSLTVKIILPEGAKNIEIDSPYEISRAPDELHYTYLDTFGRPVIVAYKKNLVEQHIQDIVVHYTFNKVLMLQEPLLVVAAFYILFFTVIIYVRLDFSITKDPAAEARMKVACITEQVLTLVNKRIGLYRHFDETVNRYKQSRDISTLNSGKKSLETEHKALTSEIALLQSRLKTEGSDLCDRVSEMQKLDAQVKELVLKSAVEAERLVAGKLKKDTYIENEKLISGKRQELVTKIDHILDAL"

# No constants are given. Whether binding was seen depends on the method and setting. In cells and extracts the contact can be indirect. For some of these results: A result given as binding can be weak or reduced; the word gives no strength. Where a sequence is shown, tags or fusion partners need not be part of it.
